The DeepSol protein solubility set

Test: soluble on expression in E. coli; label from the status in PepcDB or PDB records

Sequence | soluble on expression in E. coli
AKESTGFKPGSAKKGATLFKTRCQQCHTIEEGGPNKVGPNLHGIFGRHSGQVKGYSYTDANINKNVKWDEDSMSEYLTNPKKYIPGTKMAFAGLKKEKDRNDLITYMTKAAK | soluble
AMADVVPKPNWLGGLSRAAFPKRFVFGTVTSAYQVEGMAASGGRGPSIWDAFAHTPGNVAGNQNGDVATDQYHRYKEDVNLMKSLNFDAYRFSISWSRIFPDGEGRVNQEGVAYYNNLINYLLQKGITPYVNLYHYDLPLALEKKYGGWLNAKMADLFTEYADFCFKTFGNRVKHWFTFNEPRIVALLGYDQGTNPPKRCTKCAAGGNSATEPYIVAHNFLLSHAAAVARYRTKYQAAQQGKVGIVLDFNWYEALSNSTEDQAAAQRARDFHIGWYLDPLINGHYPQIMQDLVKDRLPKFTPEQARLVKGSADYIGINQYTASYMKGQQLMQQTPTSYSADWQVTYVFAKNGKPIGPQANSNWLYIVPWGMYGCVNYIKQKYGNPTVVITENGMDQPANLSRDQYLRDTTRVHFYRSYLTQLKKAIDEGANVAGYFAWSLLDNFEWLSGYTSKFGIVYVDFNTLERHPKASAYWFRDMLKH | soluble
DCYHGDGQSYRGSFSTTVTGRTCQSWSSMTPHWHQRTTEYYPNGGLTRNYCRNPDAEIRPWCYTMDPSVRWEYCNLTQCPVME | soluble
GHMDEEDGEPPYEPESGCVEIPGLSEEEDPAPSRKIHFSTAPIQVFSTYSNEDYDRRNEDVDPMAASAEYELEKRVERLELFPVELEKDSEGLGISIIGMGAGADMGLEKLGIFVKTVTEGGAAHRDGRIQVNDLLVEVDGTSLVGVTQSFAASVLRNTKGRVRFMIGRE | soluble
GIPDLVKGPWTKEEDQKVIELVKKYGTKQWTLIAKHLKGRLGKQCRERWHNHLNPEVKKSSWTEEEDRIIFEAHKVLGNRWAEIAKLLPGRTDNAVKNHWNSTIKRKVDT | soluble
GPGSMGNRQSSVPLEGEGHPEVFYRGVKAAQEGRFTVSEVYFVQALTRHPGRRFWDTFTRAVLQKERNAGFEGGGASLPKDGVQEDVGAGPAVDGPLGSCNDVQPQPVRGGSVTDKADELPGSDDRGDGGDSAEQTDARTNGAQPVYDTKVVDVFLPLDGDLTHIMDYYRLLADIGHTYLQLIPSTAHVEKVTGLAARYCIFTITHTQMLLHCLMLWKEARLGDGGGFIDYAKVRNLKICSGAAEHTAQSNADAHSSNEGKQKWRTIDRTASLLFTLQLLEANCRYYCLVFLANYCALLLRSYSCLTDQRKVNRVHANVVEHLDMVSRLVLDLAGEYPNEYLSRLIMANLPKPSNFDRECLSSMGASSHMGSQKILSFGNDQHRHLYASGYPWSPTQSALIPLILARTVRLTVQENVSRTSQAQLRSPAERLSYHYTTWNFDSELVIVPGCSLYMLKKSLPGFEPGKSTFAHYATMAEHEELHVPRAAADVHWQRGSAAVPVPEDGGGAAPGSHRNPRKSEDSADAEKREALTKKCEERLIKKRRHINTDLHLSDERTCVALCLEEACATALPSLLLASILRKMSGIPESAEFINNVTDLVMGLYGSDSSEWHIIASILRKHLEG | soluble
GSHMASMRVVKELEDLQKKPPPYLRNLSSDDANVLVWHALLLPDQPPYHLKAFNLRISFPPEYPFKPPMIKFTTKIYHPNVDENGQICLPIISSENWKPCTKTCQVLEALNVLVNRPNIREPLRMDLADLLTQNPELFRKNAEEFTLRFGVDRPS | soluble
IGDDSLFVNVGERTNVTGSAKFKRLIKEEKYSEALDVARQQVESGAQIIDINMDEGMLDAEAAMVRFLNLIAGEPDIARVPIMIDSSKWEVIEKGLKCIQGKGIVNSISMKEGVESFIHHAKLVRRYGAAVVVMAFDEVGQADTRERKIEICRRAYKILTEEVGFPPEDIIFDPNIFAVATGIEEHNNYAQDFIGACEDIKRELPHALISGGVSNVSFSFRGNDPVREAIHAVFLYYAIRNGMDMGIVNAGQLAIYDDLPGELRDAVEDVILNRRDDSTERLLELAEKYRGSKADDG | not soluble
MAEKNDVAEQPADKPVKATKVKGTVKWFNVKNGYGFINRTDTNEDIFVHQTAIINNNPNKYLRSLGDNEEVMFDIVEGSKGLEAASVTGPDGGPVQGSKYAADRDAENAARGRGGRGRGRRGGRGGIRHDSGSRDAEEGGAPRGGGRGGSRRGGGGRGGGRTNSGGEETARDTDGGERGGRGGGRRGGRGRGGRGRGGRGGQGGQSEA | soluble
MAKIPVTVLSGYLGSGKTTLLNHILQNREGRRIAVIVNDMSEVNIDKDLVADGGGLSRTDEKLVELSNGCICCTLRDDLLKEVERLVKKGGIDQIVIESTGISEPVPVAQTFSYIDDELGIDLTAICRLDTMVTVVDANRFVHDINSEDLLMDRDQSVDETDERSIADLLIDQVEFCDVLIINKIDLISEEELAKLEKVLSALQPIAKIIKTTNSEVDLKEVLNTQRFDFEKASESAGWIKELESGGHASHTPETEEYGISSFVYKRRLPFHAKRFNDWLESMSNNVVRSKGIVWLAQYNHVACLLSQAGSSCNIHPVTYWVASMSEAQQTQILAERQDVAAEWDPEYGDRHTQFVIIGTELDEEKLTKELDACLVNAQEIDADWQQFEDPYQWQIRPAR | not soluble
MGHHHHHHSHMDYTLTRIDPNGENDRYPLQKQEIVTDPLEQEVNKNVFMGKLNDMVNWGRKNSIWPYNFGLSCCYVEMVTSFTAVHDVARFGAEVLRASPRQADLMVVAGTCFTKMAPVIQRLYDQMLEPKWVISMGACANSGGMYDIYSVVQGVDKFIPVDVYIPGCPPRPEAYMQALMLLQESIGKERRPLSWVVGDQGVYRANMQSERERKRGERIAVTNLRTPDEI | not soluble
MGHHHHHHSHMENFKGLQKSLYIWTDSADLDKRVEQLKAATGGDVALENVHRLSFSSYANSSFDLIVIECAQLTDSYVKLLHMLKPSGKLHLVSYIGPAASLLQEIKLSGFINCREDSPDALTAEKPGYETGSSARLSFAKKNASAVNVWKISGDDEELIDEEELLDEEDKQKPDPAGLRVCSTTGKRKACKNCSCGLAEELETEKQSQKATENAKSSCGNCYLGDAFRCSTCPYLGMPAFKPGEKVQLADNLLKSDI | soluble
MGHHHHHHSHMRSKGRARKLATNNECVYGNYPEIPLEEMPDADGVASTPSLNIQEPCSPATSSEAFTPKEGSPYKAPIYIPDDIPIPAEFELRESNMPGAGLGIWTKRKIEVGEKFGPYVGEQRSNLKDPSYGWEVHLPRSRRVSVHSWLYLGKRSSDVGIAFSQADVYMPGLQCAFLS | not soluble
MGHHHHHHSHNGAEGDQINASKNEEDAGKMFVGGLSWDTSKKDLKDYFTKFGEVVDCTIKMDPNTGRSRGFGFILFKDAASVEKVLDQKEHRLDGRVIDPKKAMAMKKDPVKKIFVGGLNPEATEEKIREYFGEFGEIEAIELPMDPKLNKRRGFVFITFKEEEPVKKVLEKKFHTVSGSKCEIKVAQPKEVYQQQQYGSGGRGNRNRGNRGS | soluble
MHIGQALDLVSRYDSLRNPLTSLGDYLDPELISRCLAESGTVTLRKRRLPLEMMVWCIVGMALERKEPLHQIVNRLDIMLPGNRPFVAPSAVIQARQRLGSEAVRRVFTKTAQLWHNATPHPHWCGLTLLAIDGVFWRTPDTPENDAAFPRQTHAGNPALYPQVKMVCQMELTSHLLTAAAFGTMKNSENELAEQLIEQTGDNTLTLMDKGYYSLGLLNGWSLAGEHRHWMIPLRKGAQYEELRKLGKGDHLVKLKTSPQARKKWPGLGNEVTARLLTVTRKGKVCHLLTSMTDAMRFPGGEMADLYSNRWEIELGYREIKQTMQLSRLTLRSKKPELVEQELWGVLLAYNLVRYQMIKMAEHLKGYWPNQLSFSESCGMVMRMLMTLQGASPGRIPELMSDLASMGQLVKLPTRRGRAFPRVVKERPWKYPTAPKKSQSVA | not soluble
MIFACVNTKGGVGKTTTAVHLAVMLARQGKTLLIDGDPQASAASWAAWRRETQYDPSPTTTCLAGKAILAEGKQLATGFEHVVVDAGGRDSVGLRSALLLAQSAVIPVGASNLDAAAMTDLLEVVELARDYNPELDVRVLLTRVDPRTKDAVEMLEFLAEQKLTVLPTKVCERVAFRRAIGEGATVQELGRDQAAIAEMEAFFKEVMALEHHHHHH | not soluble
MPDMSQLKELPFSTLQFYATAPYPCSYLPGRQARSQVAAPGHLINAGTYSQLVEQGFRRSGLFTYRPHCDNCHACVPVRVDAARFEPNRTQRRAWRSHQALRAFVAELAWSPEHYDLYTRYQQGRHPGGGMDEDSRTQYAQFLLTTRVNTRLVEFRAPQGQLAMISIIDVLDDGLSSVYTFYDPDMAGSLGTYSILWQIEQCRTLDLPWLYLGYWIADSRKMAYKANFRPLQMHVDGAWRETPPLEHHHHHH | soluble
MQKKVIAAIIGTSAISAVAATQANAATTHTVKPGESVWAISNKYGISIAKLKSLNNLTSNLIFPNQVLKVSGSSNSTSNSSRPSTNSGGGSYYTVQAGDSLSLIASKYGTTYQNIMRLNGLNNFFIYPGQKLKVSGTASSSNAASNSSRPSTNSGGGSYYTVQAGDSLSLIASKYGTTYQKIMSLNGLNNFFIYPGQKLKVTGNASTNSGSATTTNRGYNTPVFSHQNLYTWGQCTYHVFNRRAEIGKGISTYWWNANNWDNAAAADGYTIDNRPTVGSIAQTDVGYYGHVMFVERVNNDGSILVSEMNYSAAPGILTYRTVPAYQVNNYRYIH | not soluble
MRSDAVKKGIERAPHRALFKAMGYTDEELERPLIGVVNSRNEIVPGHIHLDKIAEAVKAGIRMAGGTPVEFGAIGVCDGIAMGHTGMKYSLATRELIADSCEAMALAHSFDGMVFIPNCDKIVPGMLMAAARINVPAIVVSGGPMLSLRHNDKNLDLNSVFEAVGAYKAGKMTEKEVWEYEEKACPGCGSCSGMFTANSMNCLTEVLGMGLPGNGTVPAVYAERIRLAKKAGMKIVELVEKDIKPSDILTPKAFENALAVDMALGCSTNSVLHLPAIANEVGMEINLDIINEISSKVPNLCKLAPAGHHHVQDLYAAGGIPAVMKELSKKNLLHLDLITVTGKTVRENIENAKVRDYEVIRSIDNPYSPTGGIAVLRGNLAPDGAVVKRSAVAPEMLVHKGPARVFDSEDAAIEAIYNGKINKGDVVIIRYEGPKGGPGMREMLSPTSAIAGMGLDKDVALITDGRFSGATRGASIGHVSPEAMAGGPIAIVRDGDIISIDIPNGKLDVEIPDSEIQKRLKEWKAPAPKITKGYLGRYAKLVSSANKGAILENK | soluble
MSNPTDNNSATSSITPNCEFLMFEVSTNLVIQFTYFVKLYPNYFQIRFASFFGAPPPPPLIEWNFKIKCFSKAIIQLFPKLISFFFSVSAFSSFTTYKPSDSFSSFESDSSPSKSSSSRKNRDKIADKKQRRNRTTFTTFQLHALEAAFDKTHYPDVYARETLAAKVQLPEVRVQVWFQNRRAKFRRQEKQDCQGEEKHSLKDTMPSWSWMSENKTDTPPMLPPANTLSSTHNNGISDEFFKTSEGKEVYGFPFAEYGTPADNTHVSKTGNVFHLNFEDSDKKSMKKESPQTPSTSSPFISEYHPPFIPYYIPNQSFSNAFNQYPMPFPYPIHFEPPQLTHSQENC | not soluble
MSSYPSSGRRRPITRSEAEERALDKISREAEARMKLKRETREQARQGRYQLLEKKVEEDAEAYRHDTASTSNTNGVSSQSNQTQEQLHDKVIELQDRVQQVMFLYSQLDNEKSTLLYEVDLLKDELEEKDASLNLSSRECRDLTSEVKALKRTIDALHASQQQLKQEISQRDQLIQENGLCLVEEDPDDEGSESTNNASGEIRSGPYLFKRETIRLVDRVVPGAASLDDKIQKLVDTNKKMRKDYEELEQTIYTQRHARNARDSANVIPNQGVDDVNKDAAKQLAEMKLKMQDLERENTNQQGNVIRMEGQMKRYKSNADVAEKELDELKTQMRQTKKELRDKENALDEQKETNKHLQSRLEKMRMQRTGRPL | not soluble
MTIFQGKSGKKATGGSLKQSRKKRRFELGREPTLTKLGTKTERKVIRTMGGNTKVILFTAETANVYDASEKKIKKAKIITVKANPANSHYVQRNIINKGTVIATEIGDAVVTSRPGQDGVINAKLLKLEHHHHHH | soluble
